The chains behind the UniProt entries cited, without tags or fusion partners. Where a name states a change or a piece, a line headed by the entry shows the natural chain unless it says otherwise. Residues count along the entry.
UniProt P34741, residues 19-201: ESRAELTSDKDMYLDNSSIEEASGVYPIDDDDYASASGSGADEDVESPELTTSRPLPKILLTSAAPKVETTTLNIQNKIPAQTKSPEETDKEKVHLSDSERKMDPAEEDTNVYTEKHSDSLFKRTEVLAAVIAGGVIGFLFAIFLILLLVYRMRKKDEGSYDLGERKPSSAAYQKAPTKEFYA
UniProt P09038: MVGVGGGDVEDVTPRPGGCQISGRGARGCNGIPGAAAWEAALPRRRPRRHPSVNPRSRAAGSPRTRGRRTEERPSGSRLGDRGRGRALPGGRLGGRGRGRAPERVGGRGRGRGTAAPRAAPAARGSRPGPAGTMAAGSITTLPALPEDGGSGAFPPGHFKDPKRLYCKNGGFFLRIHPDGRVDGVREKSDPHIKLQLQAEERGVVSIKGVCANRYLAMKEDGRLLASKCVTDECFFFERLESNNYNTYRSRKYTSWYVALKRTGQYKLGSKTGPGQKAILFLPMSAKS

In article PMC10367555:

Target: FLAG-tagged-SDC2 (Syndecan-2) (UniProt P34741)
Assay: affinity purification with mass spectrometry; HEK293T transfected with control or FLAG-tagged-SDC2 plasmid; extracts incubated with anti-FLAG magnetic beads for 12 h; precipitate separated by SDS-PAGE, bands cut and analysed by LC-MS

Molecule	binding
FGF2 (Fibroblast growth factor 2), found with FLAG-SDC2 in HEK293T (from UniProt P09038) (ligand)	binds
PDK1 (3-Phosphoinositide dependent protein kinase 1), found with FLAG-SDC2 in HEK293T (protein, UniProt O15530 1-556) MARTTSQLYDAVPIQSSVVLCSCPSPSMVRTQTESSTPPGIPGGSRQGPAMDGTAAEPRPGAGSLQHAQPPPQPRKKRPEDFKFGKILGEGSFSTVVLARELATSREYAIKILEKRHIIKENKVPYVTRERDVMSRLDHPFFVKLYFTFQDDEKLYFGLSYAKNGELLKYIRKIGSFDETCTRFYTAEIVSALEYLHGKGIIHRDLKPENILLNEDMHIQITDFGTAKVLSPESKQARANSFVGTAQYVSPELLTEKSACKSSDLWALGCIIYQLVAGLPPFRAGNEYLIFQKIIKLEYDFPEKFFPKARDLVEKLLVLDATKRLGCEEMEGYGPLKAHPFFESVTWENLHQQTPPKLTAYLPAMSEDDEDCYGNYDNLLSQFGCMQVSSSSSSHSLSASDTGLPQRSGSNIEQYIHDLDSNSFELDLQFSEDEKRLLLEKQAGGNPWHQFVENNLILKMGPVDKRKGLFARRRQLLLTEGPHLYYVDPVNKVLKGEIPWSQELRPEAKNFKTFFVHTPNRTYYLMDPSGNAHKWCRKIQEVWRQRYQSHPDAAVQ	binds

These are yes or no findings as the source states them, for the method shown. In cells and extracts the contact can be indirect. Here binding means that the protein was enriched with, or labelled near, the bait; the list need not be complete. Tags and fused reporters may be left off the sequences shown.
